For some assays here: HELM strings list residues between dots; [ac] is acetyl, [am] amide, other brackets name non-standard units.
Legend:
[1] = general procedure: Fmoc solid-phase peptide synthesis; Wang resin; conditions: whole synthesis, 214 nm, scale of the general procedure 3.65 mmol
[2] = general procedure: Fmoc solid-phase peptide synthesis; Wang resin-Leu-Fmoc; conditions: late stage modification step, 214 nm

Substance | crude HPLC purity [1] [%] | final HPLC purity [2] [%]
Fmoc-Ala-Leu-Ala-Leu-OH (Fmoc-ALAL-OH) | 90 | –
PEPTIDE1{[Suc].[bAla].[LeuX].[AlaX].[LeuX].[Ptx2O]}$$$$V2.0 | – | 93

From patent EP1977765A1 (Diatos, priority 2007, dated 2008)
